{
  "source": "patent US9241916B2",
  "about": "“Cognitive performance with sirtuin activators” (President and Fellows of Harvard College, priority 2005, dated 2016)",
  "tested_on": "C57BL/6J mice",
  "assay": "Context- and tone-dependent Pavlovian fear conditioning, icv. injection",
  "type": "in vivo",
  "conditions": "daily icv. injection 5 μg/mouse for 7 days",
  "source_text": "A fundamental type of learning is associative learning that can be analyzed in rodents using the pavlovian fear conditioning paradigm (Fendt and Fanselow, 1999; Fischer et al., 2003). As fear conditioning is a robust and commonly used method to analyze learning and allows to delineate the involvement of distinct brain structures in the learning process, we choose this paradigm to investigate the effect of reveratrol on learning. The principle of Pavlovian fear conditioning is as follows. During the training procedure mice are exposed to a novel context (context 1), consisting of an observation chamber with defined lightning, odor, background noise and geometry. After exploring this novel environment for 180 s the animals are exposed to a tone for 30 s followed by a mild electric foot shock for 2 s. On the basis of associative learning mice display aversive freezing behavior during a memory test consisting of re-expose to the conditioning context 24 h after the training. […] Tone-dependent fear memories can be analyzed by presenting the tone in context 2. Freezing is an inborn behavior that rodents express in threatening situations. […] Therefore, freezing behavior is commonly used to quantify the amount of learning. […] The animals were trained by context- and tone-dependent fear conditioning 24 h after the last icv. injection and memory retention was analyzed the following day (see FIG. 1A). […]",
  "note": "“Also recorded” adds a separate entry of the source.",
  "data": [
    {"smiles": "Oc1ccc(C=Cc2cc(O)cc(O)c2)cc1", "note": "[resveratrol, 3,5,4′-tri-hydroxystilbene]", "values": [
      {"measurement": "explorative behavior (distance traveled during training)", "value": "did not affect"},
      {"measurement": "pain sensation (activity during electric foot shock)", "value": "did not affect; also recorded: not affected"}
    ]}
  ]
}
